Reference: patent US7288547B2, “CDK-inhibitory 2-heteroaryl-pyrimidines, their production and use as pharmaceutical agents” (Schering AG, priority 2002, dated 2007)

Test system: MCF7
Experiment: Proliferation Assay (crystal violet)
Format: cell-based
Details: Homo sapiens, MCF-7 cells, comparison with known reference compounds
Method: Cultivated human tumor cells (as indicated) were flattened out at a density of 5000 cells/measuring point in a 96-well multititer plate in 200 μl of the corresponding growth medium. After 24 hours, the cells of one plate (zero-point plate) were colored with crystal violet (see below), while the medium of the other plates was replaced by fresh culture medium (200 μl), to which the test substances were added in various concentrations (0 μm, as well as in the range of 0.01-30 μm; the final concentration of the solvent dimethyl sulfoxide was 0.5%). The cells were incubated for 4 days in the presence of test substances. The cell proliferation was determined by coloring the cells with crystal violet: the cells were fixed by adding 20 μl/measuring point of a 11% glutaric aldehyde solution for 15 minutes at room temperature. After three washing cycles of the fixed cells with water, the plates were dried at room temperature. The cells were colored by adding 100 μl/measuring point of a 0.1% crystal violet solution (pH was set at 3 by adding acetic acid). […] The extinction was determined by photometry at a wavelength of 595 nm. The change of cell growth, in percent, was calculated by standardization of the measured values to the extinction values of the zero-point plate (=0%) and the extinction of the untreated (0 μm) cells (=100%).

CC[C@@H](CO)Nc1nc(NCc2ccccc2)c2ncn(C(C)C)c2n1 [Roscovitine, reference compound]
IC50: 8 µM
